No constants are given. Whether binding was seen depends on the method and setting. Some entries that bind do so weakly or less than the wild type.
Target: bovine serum albumin (bovine) (UniProt P02769)
Experiment: observed during generation of the albumin-peptide conjugate used for affinity purification; method not described

Amino acid sequences for entries named in this document (tags omitted). Residues count along the entry.
UniProt P02769, residues 25-607: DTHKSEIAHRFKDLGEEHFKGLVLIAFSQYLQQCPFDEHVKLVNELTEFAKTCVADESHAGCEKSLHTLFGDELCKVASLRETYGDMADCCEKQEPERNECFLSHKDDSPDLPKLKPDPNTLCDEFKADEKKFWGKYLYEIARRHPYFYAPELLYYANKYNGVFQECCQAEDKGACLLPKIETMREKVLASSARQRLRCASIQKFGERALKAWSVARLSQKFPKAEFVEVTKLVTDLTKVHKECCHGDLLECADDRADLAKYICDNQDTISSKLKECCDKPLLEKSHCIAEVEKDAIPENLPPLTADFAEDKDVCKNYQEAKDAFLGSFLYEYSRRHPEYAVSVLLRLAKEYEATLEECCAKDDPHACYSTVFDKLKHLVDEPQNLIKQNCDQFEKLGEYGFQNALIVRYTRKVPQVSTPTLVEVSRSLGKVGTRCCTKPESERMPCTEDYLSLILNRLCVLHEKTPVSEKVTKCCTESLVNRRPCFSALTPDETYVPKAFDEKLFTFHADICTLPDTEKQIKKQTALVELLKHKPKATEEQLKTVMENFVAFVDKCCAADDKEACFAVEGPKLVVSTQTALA

- binding: binds
Binder: VIFDANAPVAVR [human thyroglobulin tryptic peptide … (SEQ ID NO:2)]

— patent US20090042213A1
